SMILES strings stand for the structures. This is one part of the list. Further columns of the screen follow, without active or inactive calls. Most of these compounds were active or inconclusive in the main read-out, so they are no random draw. The note in brackets gives the kind of curve behind each potency; many fits are weak.

This assay in a line: qHTS Assay to Find Inhibitors of Chronic Active B-Cell Receptor Signaling. Particulars: ABC-DLBCL IkBa-CBG/CBR reporter, luminescence ratio (green luciferase fused to IkBa over red control in TMD8 lymphoma cells), 4 h; measured here: CBR red luminescence, cell number. The gist of the method:
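Cell line TMD8 (human ABC DLBCL), stably expressing tet-inducible CBG68-IkBa fusion and CBR; IMDM/0.5% FBS; cpd up to 46 uM; dox induction, 4 h, 37C/5% CO2; dual luminescence; green/red ratio; MG132 control.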
As for `CCCC(=O)N(CCc1ccccc1)Cc1nc2ccccc2c(=O)[nH]1`, the AC50 – broadly, the concentration giving half of the maximal activity seen – is 17.8 µM [falling, partial curve, poor fit]. As for `CCOC(=O)C1=C(O)/C(=C/c2cc(OC)c(OC)c(OC)c2)SC1=Nc1ccc(OC)cc1`, the AC50 is 0.1 µM [rising, full curve, poor fit]. The same measure for `Cc1ccc(N(CC2CO2)S(=O)(=O)c2ccc(C)cc2)cc1` (stereo not drawn): 22.4 µM [falling, single point]; for `Cc1ccc(CN=c2c([N+](=O)[O-])nn(-c3ccc4c(c3)OCCO4)n2O)cc1`: 25.9 µM [rising, single point]; for `COc1cc(CNCc2cccnc2)ccc1OCC(=O)NC(C)(C)C`: 3.55 µM [rising, partial curve, poor fit].

As for `Cc1ccccc1CSc1nnc(NC(=O)Cc2cccs2)s1`, the AC50 was 16.4 µM [rising, partial curve, poor fit]. Regarding `COc1cccc(C(=O)N/N=C/c2ccc(OC3CSC3)cc2)c1`, the concentration at half-maximal activity (AC50) was 0.092 µM [falling, full curve]. The same measure for `Cc1ccc(S(=O)(=O)N2CCCCC2C(=O)O)cc1` (stereo not drawn): 3.98 µM [rising, full curve, poor fit]. Consider `O=C(O)c1ccc(CSc2ncnc3c2cnn3Cc2ccccc2)cc1`, for which the AC50 is 8.91 µM [falling, partial curve]. The same measure for `NS(=O)(=O)OCCCc1ccc(C(F)(F)F)cc1`: 5.62 µM [falling, partial curve, poor fit]. The same measure for `O=C(Cn1c(=O)c2c(ncn2C2CCCC2)n(Cc2ccccc2)c1=O)N1CCc2ccccc21`: 18.4 µM [falling, partial curve]; for `CCCc1cc(C(=O)Nc2cccc(C(C)=O)c2)no1`: 12.6 µM [rising, single point]. `Cc1cccc(Nc2nc(-c3cccs3)cs2)n1`: the AC50 is 16.4 µM [falling, partial curve]. The same measure for `Nc1nc(N)c2[nH]c(-c3ccccc3)nc2n1`: 2 µM [falling, full curve]; for `Cc1cc2oc(=O)cc(CN3CCN(C/C=C/c4ccccc4)CC3)c2cc1O`: 12.6 µM [falling, partial curve, poor fit]; for `O=C(CSc1ncn[nH]1)N/N=C/c1ccc(Br)cc1`: 14.1 µM [falling, partial curve]. The same measure for `CC(C)c1ccc(NC(=S)NC2CC3C=CC2C3)cc1` (stereo not drawn): 0.794 µM [rising, full curve, poor fit]; for `CCOC(=O)N1CCN(Cc2nc(Cc3cccc(C(F)(F)F)c3)no2)CC1`: 35.5 µM [rising, partial curve, poor fit].

The values above are taken from PubChem BioAssay AID493014 (National Center for Advancing Translational Sciences (NCATS), 2011).
